Results as given in article PMC2659420.
These are yes or no findings as the source states them, for the method shown. Some results given as binding are weak or reduced against the parent protein; the word gives no strength. Sequences can lack the tags named with a protein.

Protein sequences, listed by entry. Tags and fused reporters are not part of them. Residues count along the entry.
UniProt P03973, residues 26-132: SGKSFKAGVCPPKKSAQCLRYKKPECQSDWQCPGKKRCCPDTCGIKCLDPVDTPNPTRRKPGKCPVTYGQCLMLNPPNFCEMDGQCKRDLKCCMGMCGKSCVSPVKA

T1: GST-PLSCR1 (full length PLSCR1 fused to glutathione-S-transferase) (human) (UniProt O15162)
T1 sequence: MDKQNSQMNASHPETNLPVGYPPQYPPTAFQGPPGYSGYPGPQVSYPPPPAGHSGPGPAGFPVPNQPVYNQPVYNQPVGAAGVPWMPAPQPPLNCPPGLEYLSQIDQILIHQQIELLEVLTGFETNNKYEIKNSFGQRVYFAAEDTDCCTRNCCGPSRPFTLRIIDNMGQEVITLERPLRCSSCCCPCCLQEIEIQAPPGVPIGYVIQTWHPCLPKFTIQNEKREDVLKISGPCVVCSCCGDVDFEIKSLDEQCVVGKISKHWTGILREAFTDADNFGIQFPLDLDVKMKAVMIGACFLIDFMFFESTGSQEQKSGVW


Experiments:
[1] = target: T1, GST-PLSCR1 (full length PLSCR1 fused to glutathione-S-transferase) (human); assay: pull-down; the same inhibition experiment, for the pair of purified soluble GST-SLPI and immobilised GST-PLSCR1 (displacement of CD4); both purified
[2] = target: LexA-SLPI (a.a. 26-132), mature form of secretory leukocyte protease inhibitor fused to LexA (human) (UniProt P03973); assay: two-hybrid
Non-tagged SLPI (human) = Non-tagged SLPI (human) (UniProt P03973); assay: ELISA; plates coated with non-tagged SLPI at 0.25 µM; GST-PLSCR1 or GST at 1 nM to 1 µM, 2 h at 37°C in PBS-TB; anti-GST detection, OD 450 nm; both purified

Molecule	binding [2]	other results
GST-SLPI(26-132) (from UniProt P03973 26-132)		binding [1]: binds
GST-PLSCR1 (full length PLSCR1 fused to glutathione-S-transferase) (protein, UniProt O15162 1-318) MDKQNSQMNASHPETNLPVGYPPQYPPTAFQGPPGYSGYPGPQVSYPPPPAGHSGPGPAGFPVPNQPVYNQPVYNQPVGAAGVPWMPAPQPPLNCPPGLEYLSQIDQILIHQQIELLEVLTGFETNNKYEIKNSFGQRVYFAAEDTDCCTRNCCGPSRPFTLRIIDNMGQEVITLERPLRCSSCCCPCCLQEIEIQAPPGVPIGYVIQTWHPCLPKFTIQNEKREDVLKISGPCVVCSCCGDVDFEIKSLDEQCVVGKISKHWTGILREAFTDADNFGIQFPLDLDVKMKAVMIGACFLIDFMFFESTGSQEQKSGVW		binding (Non-tagged SLPI (human)): binds

The next lines start with results.

binding [2]	Molecule	other results
binds	Gal4AD-PLSCR1 (residues 155-233), minimal deleted form (domain or fragment, UniProt O15162 155-233) GPSRPFTLRIIDNMGQEVITLERPLRCSSCCCPCCLQEIEIQAPPGVPIGYVIQTWHPCLPKFTIQNEKREDVLKISGP	
binds	Gal4AD-PLSCR1 (full length phospholipid scramblase 1 fused to the Gal4 activation domain) (protein, UniProt O15162 1-318) MDKQNSQMNASHPETNLPVGYPPQYPPTAFQGPPGYSGYPGPQVSYPPPPAGHSGPGPAGFPVPNQPVYNQPVYNQPVGAAGVPWMPAPQPPLNCPPGLEYLSQIDQILIHQQIELLEVLTGFETNNKYEIKNSFGQRVYFAAEDTDCCTRNCCGPSRPFTLRIIDNMGQEVITLERPLRCSSCCCPCCLQEIEIQAPPGVPIGYVIQTWHPCLPKFTIQNEKREDVLKISGPCVVCSCCGDVDFEIKSLDEQCVVGKISKHWTGILREAFTDADNFGIQFPLDLDVKMKAVMIGACFLIDFMFFESTGSQEQKSGVW	
